In the supplement of paper PMC4604168 (melanoma cell lines):
Some of the results follow. Repeats are few or missing, and single values can be far off.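 Cells were imaged in 1,536-well plates, and nuclei stained with an antibody against cleaved PARP were counted against all DNA-stained nuclei to give the apoptosis fraction. Screening doses were chosen to leave most cells alive, and resting and induced cleaved-PARP levels differ strongly between cell lines.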

Assays:
Assay in all cases: cleaved PARP positive nuclei fraction relative to DMSO control; melanoma cells; higher = more apoptosis
Conditions in all cases: library dose: low library concentration; 72 h
[1] = test system: MZ2-MEL
[2] = test system: MeWo
[3] = test system: RPMI7951
[4] = test system: RVH-421
[5] = test system: SkMel28
[6] = test system: SkMel2
[7] = test system: SkMel30
[8] = test system: SkMel5
[9] = test system: UACC257
[10] = test system: UACC62
[11] = test system: WM115
[12] = test system: WM1716
[13] = test system: WM1745
[14] = test system: WM3526
[15] = test system: WM3619
[16] = test system: WM451Lu

SMILES	cleaved PARP positive nuclei fraction [1]	cleaved PARP positive nuclei fraction [2]	cleaved PARP positive nuclei fraction [3]	cleaved PARP positive nuclei fraction [4]	cleaved PARP positive nuclei fraction [5]	cleaved PARP positive nuclei fraction [6]	cleaved PARP positive nuclei fraction [7]	cleaved PARP positive nuclei fraction [8]	cleaved PARP positive nuclei fraction [9]	cleaved PARP positive nuclei fraction [10]	cleaved PARP positive nuclei fraction [11]	cleaved PARP positive nuclei fraction [12]	cleaved PARP positive nuclei fraction [13]	cleaved PARP positive nuclei fraction [14]	cleaved PARP positive nuclei fraction [15]	cleaved PARP positive nuclei fraction [16]
Cc1cn(-c2cc(NC(=O)c3ccc(C)c(Nc4nccc(-c5cccnc5)n4)c3)cc(C(F)(F)F)c2)cn1 [nilotinib] + O=c1cc(-c2cccc3c2Sc2ccccc2S3)oc(N2CCOCC2)c1 [KU55933] (first compound 0.2 µM, partner dose 1 µM)	180%	240%	166%	48.9%	187%	75.7%	24%	238%	141%	37.6%	93.4%	144%	103%	80%	82.3%	20.2%
O=C(/C=C/c1cccnc1)NCCCCC1CCN(C(=O)c2ccccc2)CC1 + O=C(CCCCCCC(=O)Nc1ccccc1)NO [vorinostat] (first compound 0.01 µM, partner dose 0.08 µM)	239%	135%	52.9%	102%	97.9%	635%	58.4%	84.7%	112%	137%	51.3%	105%	98.6%	174%	109%	229%
CCCCCCCCCCCCCCCCCCOP(=O)([O-])OC1CC[N+](C)(C)CC1 [Perifosine] + O=C(CCCCCCC(=O)Nc1ccccc1)NO [vorinostat] (first compound 0.4 µM, partner dose 0.08 µM)	115%	71.2%	124%	91.9%	73.4%	121%	77.9%	73.3%	148%	215%	47.7%	115%	113%	119%	103%	307%
N#CC[C@H](C1CCCC1)n1cc(-c2ncnc3[nH]ccc23)cn1 [ruxolitinib] + COc1ccc2c(c1)CCC1C2CCC2(C)C(NCCCCCCN3C(=O)C=CC3=O)CCC12 [U73122] (first compound 1 µM, partner dose 0.4 µM)	160%	292%	137%	117%	61.9%	61.1%	63.8%	210%	147%	62.4%	103%	61.6%	90.8%	59%	98.6%	65.8%
O=C(/C=C/c1cccnc1)NCCCCC1CCN(C(=O)c2ccccc2)CC1 + c1cc(-c2cnn3cc(-c4ccc(OCCN5CCCCC5)cc4)cnc23)ccn1 [Dorsomorphin] (first compound 0.01 µM, partner dose 0.4 µM)	443%	59.3%	127%	118%	123%	533%	76.3%	156%	67.8%	152%	68.2%	54%	91.4%	160%	105%	166%
CCCCCCCCCCCCCCCCCCOP(=O)([O-])OC1CC[N+](C)(C)CC1 [Perifosine] + CC1(C)NC(=O)N(c2ccc([N+](=O)[O-])c(C(F)(F)F)c2)C1=O [nilutamide] (first compound 0.4 µM, partner dose 1 µM)	115%	116%	305%	92.6%	108%	92.6%	163%	167%	54.6%	407%	170%	321%	66%	80.1%	111%	145%
Cc1cn(-c2cc(NC(=O)c3ccc(C)c(Nc4nccc(-c5cccnc5)n4)c3)cc(C(F)(F)F)c2)cn1 [nilotinib] + Cc1cc(N2CCOCC2)cc2[nH]c(-c3c(NC[C@@H](O)c4cccc(Cl)c4)cc[nH]c3=O)nc12 [BMS536924] (first compound 0.2 µM, partner dose 0.2 µM)	120%	75.1%	51%	97.2%	54.1%	86.8%	91%	192%	78.3%	122%	148%	51.8%	142%	141%	83.1%	85.3%
O=C(/C=C/c1cccnc1)NCCCCC1CCN(C(=O)c2ccccc2)CC1 + Cc1ccc(NC(=O)c2cccc(N(C)C)c2)cc1NC(=O)c1ccc(O)cc1 [ZM336372] (first compound 0.01 µM, partner dose 2 µM)	931%	49.8%	143%	76.9%	168%	780%	83.9%	60.6%	114%	444%	222%	48.2%	210%	61.5%	264%	65.7%
N#CC[C@H](C1CCCC1)n1cc(-c2ncnc3[nH]ccc23)cn1 [ruxolitinib] + O=C(CCCCCCC(=O)Nc1ccccc1)NO [vorinostat] (first compound 1 µM, partner dose 0.08 µM)	129%	41.5%	73%	117%	61.9%	85%	48.5%	67.8%	85.7%	123%	49.2%	39.3%	82.7%	71.4%	102%	602%
Cc1cc(Nc2cc(N3CCN(C)CC3)nc(Sc3ccc(NC(=O)C4CC4)cc3)n2)n[nH]1 [Tozasertib] + COc1ccc2c(c1)CCC1C2CCC2(C)C(NCCCCCCN3C(=O)C=CC3=O)CCC12 [U73122] (first compound 0.006 µM, partner dose 0.4 µM)	141%	87.2%	92.7%	156%	24.6%	74.3%	171%	71.7%	38.4%	118%	242%	44.2%	95.9%	83%	81.4%	49.9%
O=C(Nc1cc(C(F)(F)F)cc(C(F)(F)F)c1)c1cc(Cl)ccc1O + COc1cc2c(Oc3ccc4[nH]c(C)cc4c3F)ncnc2cc1OCCCN1CCCC1 [cediranib] (first compound 0.016 µM, partner dose 0.4 µM)	120%	148%	108%	57.8%	42%	117%	81.1%	45.6%	269%	73.4%	106%	167%	99.7%	142%	109%	145%
Cc1cc(Nc2cc(N3CCN(C)CC3)nc(Sc3ccc(NC(=O)C4CC4)cc3)n2)n[nH]1 [Tozasertib] + COc1ccc(-c2ccc3c(N4CCOCC4)nc(N4C[C@@H](C)O[C@@H](C)C4)nc3n2)cc1CO [KU0063794] (first compound 0.006 µM, partner dose 0.02 µM)	55.4%	42.9%	37.9%	86.5%	338%	45%	44.4%	71.3%	214%	42.3%	155%	119%	95.2%	174%	84.8%	297%
Cc1cn(-c2cc(NC(=O)c3ccc(C)c(Nc4nccc(-c5cccnc5)n4)c3)cc(C(F)(F)F)c2)cn1 [nilotinib] + O=C(Nc1ccccc1)c1cc([N+](=O)[O-])ccc1Cl [GW9662] (first compound 0.2 µM, partner dose 2 µM)	122%	173%	78.6%	32.3%	78.2%	139%	46.5%	81.6%	150%	191%	72.4%	102%	230%	71.8%	93.2%	30.4%
Cc1cn(-c2cc(NC(=O)c3ccc(C)c(Nc4nccc(-c5cccnc5)n4)c3)cc(C(F)(F)F)c2)cn1 [nilotinib] + C[C@@H]1CCN(C(=O)CC#N)C[C@@H]1N(C)c1ncnc2[nH]ccc12 [CP690550] (first compound 0.2 µM, partner dose 1 µM)	77.9%	46%	59%	107%	226%	154%	116%	348%	470%	194%	60.2%	154%	94.5%	67.1%	91.6%	85.5%
O=C(/C=C/c1cccnc1)NCCCCC1CCN(C(=O)c2ccccc2)CC1 + COc1ccc(COc2ccc(Cc3cnc(N)nc3N)cc2OC)cc1 [GW2580] (first compound 0.01 µM, partner dose 1 µM)	654%	80.2%	99.7%	113%	31.4%	1260%	78.4%	92%	8.78%	309%	36.3%	43.2%	83.2%	136%	110%	73.7%
N#CC[C@H](C1CCCC1)n1cc(-c2ncnc3[nH]ccc23)cn1 [ruxolitinib] + Oc1nc(-c2ccc(C(F)(F)F)cc2)nc2c1CSCC2 [XAV939] (first compound 1 µM, partner dose 2 µM)	49.1%	225%	74%	219%	105%	28.2%	70%	175%	59.6%	54.5%	53.1%	335%	82.6%	189%	67.6%	110%
O=c1[nH]nc(Sc2ncc([N+](=O)[O-])s2)n1-c1ccc2c(c1)OCCO2 + NCC(=O)Nc1ccc(-n2nc(C(F)(F)F)cc2-c2ccc3c(ccc4ccccc43)c2)cc1 [OSU03012] (first compound 0.2 µM, partner dose 1 µM)	97.1%	63.5%	88.5%	86.8%	171%	391%	114%	209%	48.1%	68.2%	77.1%	181%	86.7%	104%	85.3%	251%

Limited to cleaved PARP positive nuclei fraction [4], cleaved PARP positive nuclei fraction [1] and cleaved PARP positive nuclei fraction [2] (two entries from above):
SMILES | cleaved PARP positive nuclei fraction [4] | cleaved PARP positive nuclei fraction [1] | cleaved PARP positive nuclei fraction [2]
Cc1cn(-c2cc(NC(=O)c3ccc(C)c(Nc4nccc(-c5cccnc5)n4)c3)cc(C(F)(F)F)c2)cn1 [nilotinib] + Cc1cc(N2CCOCC2)cc2[nH]c(-c3c(NC[C@@H](O)c4cccc(Cl)c4)cc[nH]c3=O)nc12 [BMS536924] (first compound 0.2 µM, partner dose 0.2 µM) | 97.2% | 120% | 75.1%
O=C(/C=C/c1cccnc1)NCCCCC1CCN(C(=O)c2ccccc2)CC1 + Cc1ccc(NC(=O)c2cccc(N(C)C)c2)cc1NC(=O)c1ccc(O)cc1 [ZM336372] (first compound 0.01 µM, partner dose 2 µM) | 76.9% | 931% | 49.8%
